Measurements reported in the supplement of paper PMC6411743.
± gives the standard deviation of the averaged measurements. The list shows a part of the results.

Chains of the proteins cited; added tags and fusions are not shown. Lines headed by an entry give the natural chain unless they say otherwise; changes in a name come on top.
UniProt Q63HN8: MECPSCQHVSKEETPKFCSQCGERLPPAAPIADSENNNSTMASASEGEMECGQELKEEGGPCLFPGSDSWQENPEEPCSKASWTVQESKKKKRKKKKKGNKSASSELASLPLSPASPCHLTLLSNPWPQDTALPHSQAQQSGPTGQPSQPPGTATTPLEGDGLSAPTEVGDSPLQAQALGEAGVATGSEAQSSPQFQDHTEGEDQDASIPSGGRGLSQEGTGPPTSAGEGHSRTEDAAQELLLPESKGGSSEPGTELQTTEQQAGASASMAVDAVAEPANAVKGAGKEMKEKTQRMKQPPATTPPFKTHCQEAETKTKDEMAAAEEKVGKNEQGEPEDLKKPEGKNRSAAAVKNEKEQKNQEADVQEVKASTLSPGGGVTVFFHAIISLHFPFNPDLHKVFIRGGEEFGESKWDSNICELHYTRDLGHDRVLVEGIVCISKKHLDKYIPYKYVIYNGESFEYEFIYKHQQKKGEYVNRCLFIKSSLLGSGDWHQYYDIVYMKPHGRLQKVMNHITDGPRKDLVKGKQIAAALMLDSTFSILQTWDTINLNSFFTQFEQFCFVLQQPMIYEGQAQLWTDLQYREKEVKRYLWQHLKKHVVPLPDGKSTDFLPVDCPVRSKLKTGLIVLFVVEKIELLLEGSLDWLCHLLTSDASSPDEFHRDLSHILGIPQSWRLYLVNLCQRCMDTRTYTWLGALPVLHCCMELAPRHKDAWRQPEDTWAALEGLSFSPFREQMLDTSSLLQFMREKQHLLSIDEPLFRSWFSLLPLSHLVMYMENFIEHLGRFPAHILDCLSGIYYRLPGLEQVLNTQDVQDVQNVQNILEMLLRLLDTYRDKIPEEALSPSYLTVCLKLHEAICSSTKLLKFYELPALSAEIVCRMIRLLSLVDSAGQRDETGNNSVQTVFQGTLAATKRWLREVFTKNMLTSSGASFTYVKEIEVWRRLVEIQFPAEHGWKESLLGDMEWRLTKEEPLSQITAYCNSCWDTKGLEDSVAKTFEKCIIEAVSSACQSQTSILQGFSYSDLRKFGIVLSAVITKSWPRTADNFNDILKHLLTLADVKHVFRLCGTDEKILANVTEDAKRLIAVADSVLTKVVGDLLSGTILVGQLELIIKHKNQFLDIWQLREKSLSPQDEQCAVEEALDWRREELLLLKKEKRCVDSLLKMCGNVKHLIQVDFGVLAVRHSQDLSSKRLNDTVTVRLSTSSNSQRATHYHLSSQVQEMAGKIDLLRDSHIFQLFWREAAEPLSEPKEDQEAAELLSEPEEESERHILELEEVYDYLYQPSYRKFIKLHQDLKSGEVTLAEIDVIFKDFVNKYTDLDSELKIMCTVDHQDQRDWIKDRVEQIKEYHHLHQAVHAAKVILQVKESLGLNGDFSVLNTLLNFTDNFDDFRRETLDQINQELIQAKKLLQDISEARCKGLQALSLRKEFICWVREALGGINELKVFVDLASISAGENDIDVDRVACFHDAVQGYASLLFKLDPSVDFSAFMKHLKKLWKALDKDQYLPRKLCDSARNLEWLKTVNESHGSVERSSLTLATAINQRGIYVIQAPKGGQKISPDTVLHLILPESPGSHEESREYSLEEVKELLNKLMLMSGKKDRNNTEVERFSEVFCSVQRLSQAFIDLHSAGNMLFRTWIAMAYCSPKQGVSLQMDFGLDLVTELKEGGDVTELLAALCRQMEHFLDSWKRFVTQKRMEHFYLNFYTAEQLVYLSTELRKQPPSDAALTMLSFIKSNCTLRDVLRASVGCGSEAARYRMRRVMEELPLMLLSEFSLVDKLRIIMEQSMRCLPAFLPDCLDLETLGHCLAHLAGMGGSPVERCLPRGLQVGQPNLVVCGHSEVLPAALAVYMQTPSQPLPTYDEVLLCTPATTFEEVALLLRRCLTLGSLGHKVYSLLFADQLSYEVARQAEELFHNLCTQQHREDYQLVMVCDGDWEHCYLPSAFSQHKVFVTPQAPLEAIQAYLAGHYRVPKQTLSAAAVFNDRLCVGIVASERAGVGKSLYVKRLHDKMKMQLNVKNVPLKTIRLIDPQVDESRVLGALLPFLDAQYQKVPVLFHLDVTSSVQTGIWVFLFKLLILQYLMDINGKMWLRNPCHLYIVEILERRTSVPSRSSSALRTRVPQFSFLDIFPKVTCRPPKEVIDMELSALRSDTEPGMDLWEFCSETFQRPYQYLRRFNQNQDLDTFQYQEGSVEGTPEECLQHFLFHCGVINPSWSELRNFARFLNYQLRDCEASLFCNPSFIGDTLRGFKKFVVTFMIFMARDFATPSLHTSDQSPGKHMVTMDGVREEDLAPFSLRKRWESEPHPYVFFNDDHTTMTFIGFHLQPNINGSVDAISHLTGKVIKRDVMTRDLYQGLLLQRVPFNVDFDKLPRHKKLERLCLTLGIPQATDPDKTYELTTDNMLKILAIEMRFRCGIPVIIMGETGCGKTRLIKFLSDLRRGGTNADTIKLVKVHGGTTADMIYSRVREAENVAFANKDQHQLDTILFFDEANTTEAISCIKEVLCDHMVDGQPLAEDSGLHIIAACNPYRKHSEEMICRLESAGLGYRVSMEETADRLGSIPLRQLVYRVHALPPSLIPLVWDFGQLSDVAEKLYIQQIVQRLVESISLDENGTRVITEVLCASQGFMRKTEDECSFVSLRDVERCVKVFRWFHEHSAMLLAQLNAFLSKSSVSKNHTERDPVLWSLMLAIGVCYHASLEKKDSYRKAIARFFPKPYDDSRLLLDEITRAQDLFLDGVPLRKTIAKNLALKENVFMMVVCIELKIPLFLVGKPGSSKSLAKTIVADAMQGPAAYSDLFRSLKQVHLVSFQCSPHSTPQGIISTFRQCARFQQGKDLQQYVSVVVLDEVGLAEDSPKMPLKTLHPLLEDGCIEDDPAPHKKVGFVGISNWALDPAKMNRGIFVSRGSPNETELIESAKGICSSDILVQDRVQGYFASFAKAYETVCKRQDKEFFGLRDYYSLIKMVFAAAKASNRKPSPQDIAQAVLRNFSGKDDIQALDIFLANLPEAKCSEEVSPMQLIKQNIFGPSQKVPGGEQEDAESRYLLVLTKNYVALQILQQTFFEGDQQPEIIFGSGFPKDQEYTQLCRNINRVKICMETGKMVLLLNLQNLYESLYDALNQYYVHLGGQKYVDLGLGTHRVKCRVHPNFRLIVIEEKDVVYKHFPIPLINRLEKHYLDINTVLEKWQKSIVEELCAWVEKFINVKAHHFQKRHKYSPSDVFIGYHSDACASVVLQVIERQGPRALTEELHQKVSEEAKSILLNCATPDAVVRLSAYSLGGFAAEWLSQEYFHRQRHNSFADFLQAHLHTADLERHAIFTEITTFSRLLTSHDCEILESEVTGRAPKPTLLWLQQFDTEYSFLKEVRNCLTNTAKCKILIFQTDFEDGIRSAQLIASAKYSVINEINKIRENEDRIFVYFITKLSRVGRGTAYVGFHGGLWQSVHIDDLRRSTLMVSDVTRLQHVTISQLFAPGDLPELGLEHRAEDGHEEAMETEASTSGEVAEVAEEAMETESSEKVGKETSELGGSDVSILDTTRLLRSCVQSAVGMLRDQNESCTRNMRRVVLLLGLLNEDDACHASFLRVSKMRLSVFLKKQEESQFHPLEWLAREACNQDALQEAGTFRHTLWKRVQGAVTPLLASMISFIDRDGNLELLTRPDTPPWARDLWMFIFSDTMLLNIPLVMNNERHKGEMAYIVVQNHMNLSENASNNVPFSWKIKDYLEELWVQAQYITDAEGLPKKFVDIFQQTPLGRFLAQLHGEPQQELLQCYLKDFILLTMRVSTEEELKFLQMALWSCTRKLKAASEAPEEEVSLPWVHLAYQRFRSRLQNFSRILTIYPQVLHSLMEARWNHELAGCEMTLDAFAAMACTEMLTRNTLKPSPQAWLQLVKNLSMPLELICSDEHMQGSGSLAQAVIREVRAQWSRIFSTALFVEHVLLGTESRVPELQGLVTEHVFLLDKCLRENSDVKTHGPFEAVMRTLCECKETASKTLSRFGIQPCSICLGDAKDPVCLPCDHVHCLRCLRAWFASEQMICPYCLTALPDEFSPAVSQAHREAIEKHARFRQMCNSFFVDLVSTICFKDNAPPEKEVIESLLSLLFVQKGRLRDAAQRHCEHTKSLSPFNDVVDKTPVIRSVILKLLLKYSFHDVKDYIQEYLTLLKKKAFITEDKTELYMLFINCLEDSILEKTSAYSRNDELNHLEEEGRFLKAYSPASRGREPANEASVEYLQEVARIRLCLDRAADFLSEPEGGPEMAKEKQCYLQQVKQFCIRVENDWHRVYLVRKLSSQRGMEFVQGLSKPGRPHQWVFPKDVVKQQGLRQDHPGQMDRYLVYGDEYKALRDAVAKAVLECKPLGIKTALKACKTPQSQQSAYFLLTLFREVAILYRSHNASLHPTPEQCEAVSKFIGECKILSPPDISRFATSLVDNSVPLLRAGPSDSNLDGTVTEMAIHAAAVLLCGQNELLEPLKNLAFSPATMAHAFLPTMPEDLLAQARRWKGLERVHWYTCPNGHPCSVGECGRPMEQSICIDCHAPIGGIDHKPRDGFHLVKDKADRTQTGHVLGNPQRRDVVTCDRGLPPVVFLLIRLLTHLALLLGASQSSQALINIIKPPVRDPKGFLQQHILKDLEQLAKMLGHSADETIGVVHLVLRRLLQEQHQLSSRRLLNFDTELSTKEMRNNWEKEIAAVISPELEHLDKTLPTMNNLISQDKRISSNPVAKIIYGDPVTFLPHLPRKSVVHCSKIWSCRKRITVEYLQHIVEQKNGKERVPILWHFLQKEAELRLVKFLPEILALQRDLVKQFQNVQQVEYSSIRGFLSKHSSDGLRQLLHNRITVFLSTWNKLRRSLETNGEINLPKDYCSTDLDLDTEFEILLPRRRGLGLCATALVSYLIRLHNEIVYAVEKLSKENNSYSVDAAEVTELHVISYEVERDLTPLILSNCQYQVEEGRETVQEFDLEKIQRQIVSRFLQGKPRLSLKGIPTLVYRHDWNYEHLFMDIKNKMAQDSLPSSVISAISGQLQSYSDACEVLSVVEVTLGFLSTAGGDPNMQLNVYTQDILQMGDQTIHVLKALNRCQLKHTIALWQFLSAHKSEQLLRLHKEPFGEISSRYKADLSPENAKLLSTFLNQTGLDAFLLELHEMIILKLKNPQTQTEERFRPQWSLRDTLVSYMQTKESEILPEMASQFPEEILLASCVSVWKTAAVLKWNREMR
UniProt P39656: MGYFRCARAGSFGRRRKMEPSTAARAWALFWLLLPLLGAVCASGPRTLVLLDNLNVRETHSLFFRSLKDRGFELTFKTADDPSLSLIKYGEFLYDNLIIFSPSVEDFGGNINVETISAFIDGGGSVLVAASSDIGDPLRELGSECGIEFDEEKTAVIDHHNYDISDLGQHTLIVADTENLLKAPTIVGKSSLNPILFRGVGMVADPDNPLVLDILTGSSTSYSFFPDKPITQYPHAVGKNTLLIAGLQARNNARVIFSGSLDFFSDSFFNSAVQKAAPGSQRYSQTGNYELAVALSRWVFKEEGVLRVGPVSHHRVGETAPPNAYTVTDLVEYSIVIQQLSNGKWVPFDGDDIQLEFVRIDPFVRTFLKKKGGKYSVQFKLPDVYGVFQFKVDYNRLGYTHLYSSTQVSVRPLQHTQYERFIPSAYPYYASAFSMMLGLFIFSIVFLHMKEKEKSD
UniProt Q9BPX6: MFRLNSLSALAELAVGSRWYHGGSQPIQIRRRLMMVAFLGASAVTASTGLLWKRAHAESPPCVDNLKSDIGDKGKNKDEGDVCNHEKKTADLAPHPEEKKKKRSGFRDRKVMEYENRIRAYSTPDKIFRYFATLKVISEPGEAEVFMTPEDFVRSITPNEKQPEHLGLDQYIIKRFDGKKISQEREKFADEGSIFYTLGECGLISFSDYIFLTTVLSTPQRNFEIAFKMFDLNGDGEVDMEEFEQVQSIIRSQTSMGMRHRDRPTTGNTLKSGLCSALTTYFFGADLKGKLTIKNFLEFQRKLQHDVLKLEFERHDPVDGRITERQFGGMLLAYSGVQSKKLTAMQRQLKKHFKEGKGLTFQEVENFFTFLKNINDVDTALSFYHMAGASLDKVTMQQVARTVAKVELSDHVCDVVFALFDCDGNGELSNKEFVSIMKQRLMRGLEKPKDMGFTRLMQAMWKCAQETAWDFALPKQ

Compound: Nc1nc2c(ncn2[C@@H]2O[C@H](COP(=O)(O)OP(=O)(O)OP(=O)(O)O)[C@@H](O)[C@H]2O)c(=O)[nH]1 [guanosine triphosphate]
Assay: NP40-soluble protein abundance relative to vehicle (solubility fold change) (ratio); higher = more soluble protein in presence of GTP
Description: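 Solubility proteome profiling in Jurkat crude lysate. Lysate was treated with Mg-GTP (0.1-10 mM) for 10 min at room temperature and 3 min at 37 °C, then solubilised with 0.8% NP40 and benzonase, followed by ultracentrifugation. Proteins were quantified by TMT10 LC-MS/MS; the value is the NP40-soluble abundance relative to the NP40-processed vehicle, from 3 independent experiments.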

Target	NP40-soluble protein abundance (concentration: 0.1mM)	NP40-soluble protein abundance (concentration: 0.5mM)	NP40-soluble protein abundance (concentration: 1mM)	NP40-soluble protein abundance (concentration: 2mM)	NP40-soluble protein abundance (concentration: 4mM)	NP40-soluble protein abundance (concentration: 6mM)	NP40-soluble protein abundance (concentration: 8mM)	NP40-soluble protein abundance (concentration: 10mM)
A0A087WYG2|E9PFH7 and related entries (UniProt Q9UPT6)	0.973 ± 0.05	0.964 ± 0.078	1.06 ± 0.036	0.979 ± 0.069	1.01 ± 0.23	0.992 ± 0.054	1.04 ± 0.046	0.966 ± 0.096
A0A096LPC5|Q9Y4E1 and related entries (UniProt Q9Y4E1)	0.947 ± 0.018	1.04 ± 0.057	1.073 ± 0.0097	1.02 ± 0.041	0.941 ± 0.017	0.9589 ± 0.0072	1.06 ± 0.04	1.04 ± 0.041
A0A0A0MTR7|Q63HN8 and related entries (UniProt Q63HN8)	1.11 ± 0.064	1.15 ± 0.11	1.07 ± 0.079	1.16 ± 0.15	1.19 ± 0.12	1.17 ± 0.13	1.15 ± 0.087	1.11 ± 0.099
A0A0C4DGS1|P39656 (UniProt P39656)	1 ± 0.036	1.02 ± 0.076	0.921 ± 0.02	0.963 ± 0.089	0.968 ± 0.067	0.915 ± 0.067	0.873 ± 0.015	0.876 ± 0.035
A0A0U1RRK1|F6XEV2 and related entries (UniProt Q9BPX6)	1.17 ± 0.11	1.14 ± 0.072	1.09 ± 0.087	1.09 ± 0.14	1.09 ± 0.17	1.14 ± 0.15	1.15 ± 0.1	1.15 ± 0.15
